No constants are given. Whether binding was seen depends on the method and setting. Some entries that bind do so weakly or less than the wild type. For some assays here: Sequences can lack the tags named with a protein.
T1: Biotin-hCD70 (human) (UniProt P32970)
T1 sequence (biotinylated (site not stated), looked up): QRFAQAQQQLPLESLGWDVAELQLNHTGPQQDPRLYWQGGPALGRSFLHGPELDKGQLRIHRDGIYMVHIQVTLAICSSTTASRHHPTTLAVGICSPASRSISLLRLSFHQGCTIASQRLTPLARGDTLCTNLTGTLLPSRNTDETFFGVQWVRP


Legend:
[1] = biological target: CD70-specific 4F11-QR3 chimeric antigen receptor (on CAR T cells or CAR Jurkat cells); assay: flow cytometry; PE-conjugated antibody titrated from 30 ug/mL on 4F11-QR3 CAR T cells
[2] = biological target: CD70-specific 4F11-QR3 chimeric antigen receptor (on CAR T cells or CAR Jurkat cells); assay: flow cytometry, PE-conjugated clone 37 on 4F11-QR3 CAR T cells; rows 1 and 2 are clone 37 by paragraph 61 and paragraph 211
[3] = biological target: T1, Biotin-hCD70 (human); assay: SPR classic sandwich, hCD70_100nM (Bt-hCD70) or buffer injected over 4F11 scFv 10xHis held by captured clone 60; the rising trace is taken as hCD70, because the legend lines cannot be told apart
[4] = biological target: T1, Biotin-hCD70 (human); assay: SPR, premix of 4F11 scFv 10xHis and Bt-hCD70 over captured clone 60, then streptavidin as secondary detection of the biotinylated hCD70 in the complex
[5] = biological target: T1, Biotin-hCD70 (human); assay: SPR simultaneous-binding assays; Biotin-hCD70 at 100 nM premixed with the scFv, or injected after it, on captured clone 60; streptavidin as secondary detection in the premix format
[6] = biological target: CD70-specific 4F11-QR3 chimeric antigen receptor (on CAR T cells or CAR Jurkat cells); assay: flow cytometry, PE-conjugated clone 60 on 4F11-QR3 CAR T cells; rows 3 and 4 are clone 60 by paragraph 61 and paragraph 211
[7] = biological target: CD70-specific 4F11-QR3 chimeric antigen receptor (on CAR T cells or CAR Jurkat cells); assay: flow cytometry; 4F11-QR3 CAR Jurkat cells with or without pre-incubation with hCD70 at 100 ug/mL; hybridoma supernatant 1:10, anti-mouse Fc secondary
[8] = biological target: CD70-specific 4F11-QR3 chimeric antigen receptor (on CAR T cells or CAR Jurkat cells); assay: flow cytometry; 4F11-QR3 CAR cells pre-incubated with hCD70 at 100 ug/mL, then Clone 60-PE at 1.5 ug/mL
[9] = biological target: CD70-specific 4F11-QR3 chimeric antigen receptor (on CAR T cells or CAR Jurkat cells); assay: flow cytometry; 0.3 ug/mL PE-conjugated or unconjugated recombinant or hybridoma Clone 60 on 4F11-QR3 CAR T cells
[10] = biological target: CD70-specific 4F11-QR3 chimeric antigen receptor (on CAR T cells or CAR Jurkat cells); assay: flow cytometry, Clone 60-PE at 3 ug/mL on 4F11-QR3 CAR T cells

binding [1]	binding [2]	binding [3]	binding [4]	binding [5]	binding [6]	binding [7]	binding [8]	binding [9]	binding [10]	Binder
binds	binds	–	–	–	–	–	–	–	–	anti-idiotype antibody Clone 37 (IDA2002-1.37) (antibody, V domains shown) VH: EVKLEESGGGLVQPGGSMKLSCAASGFTFSDAWMDWVRQSPEKGLEWVAEIRNKANNHATYYAESVKGRFTISRDDSKYNVYLQMNSLRAEDTGIYYCARPLLRGNFDVWGAGTTVTVSS VL: DIQMTQSSSYLSISLGGRVTITCKASDHINNWLAWYQQKSGNAPRLLISGGTSLETGVPSRFSGSGSGKDYTLSITSLQTEDVATYYCQQYWRTPFTFGSGTKLEIK
–	–	binds	binds	binds	–	–	–	–	–	4F11 scFv 10xHis (scFv) scFv: QVTLKESGPVLVKPTETLTLTCTVSGFSLSNARMGVTWIRQPPGKALEWLAHIFSNDEKSYSTSLKSRLTISKDTSKTQVVLTMTNMDPVDTATYYCARIRDYYDISSYYDYWGQGTLVSVSSGGGGSGGGGSGGGGSDIQMTQSPSAMSASVGDRVTITCRASQDISNYLAWFQQKPGKVPKRLIYAASSLQSGVPSRFSGSGSGTEFTLTISSLLPEDFATYYCLQLNSFPFTFGGGTKVEINGGSGHHHHHHHHHH
binds	–	–	–	–	binds	binds	binds	binds	binds	anti-idiotype antibody Clone 60 (IDA2002-1.60) (antibody, mouse IgG1, kappa, V domains shown) VH: EVQLQQSGPELVKTGTSVKISCKASGYSITGYYIHWVKQSHGRSLDWIGSISFYNGATTYNQKFKGKVTFTVDTSSSTAYMQFNSLTSEDSAVYYCGRRGDDYDVFAYWGQGTLVTVSA VL: DIVLTQSPASLAVSLGQRATISCRASESVDSYGYSFLHWYQQKPGQPPTLLIYRASNLESGIPARFSGSGSRTDFTLTINSVEADDVATYYCQQSNEDPWTFGGGTKLEIKR
